± gives the standard deviation of the averaged measurements. Most values lie at the floor of the assay. Slopes are relative: functional sequences can read slightly below zero.

For 116 substances, growth estimate results are on record in the supplement of paper PMC5949888.

The series relates to Saccharomyces cerevisiae PS128 hsf1 delta, HSF1(1-493) fusion. The series is described as follows: growth estimate (transactivation domain function in HSF1 fusion, heat-shock survival) (a.u. (slope of normalised read count over time)); higher = stronger growth at 37°C, i.e. more transactivation activity. To be noted: library: random library.
With TACLLNSAGTWLGIIAGK, the growth estimate is less than -0.25.

Regarding TYWANQQSKEGRDG, the growth estimate is less than -0.25.

On to IWRGDIVKKVTSIRG, for which the growth estimate was less than -0.25.

Consider YGFRQGTRTLVLATSRSVSE, for which the growth estimate was less than -0.25.

As to TRIR, the growth estimate is less than -0.25.

As to TDWFC, the growth estimate was less than -0.25.

Take ELGRGAWPGSRRGRFRYVG: the growth estimate is less than -0.25.

Consider KLNCIVGFIVFHATNKSVSS, for which the growth estimate is less than -0.25.

Turning to LGLIQVGTSLAKTLCG, the growth estimate was less than -0.25.

EDRGKNTS: the growth estimate was less than -0.25.

As to MQLWVVLNIRFTFSGR, the growth estimate was less than -0.25.

Regarding LEVAQ, the growth estimate was less than -0.25.

Consider FLKPRASDIRHCNARPAILR, for which the growth estimate is less than -0.25.

Regarding IRP, the growth estimate is less than -0.25.

KLNSTLQIPFNITWPWNTST: the growth estimate is less than -0.25.

As to VSCTRIRALLGACILIRVFT, the growth estimate was less than -0.25.

Turning to SKAGARGS, the growth estimate is less than -0.25.

Regarding HQC, the growth estimate is less than -0.25.

With TPQGQWLTSGF, the growth estimate is less than -0.25.

In the case of GLAGRLNFLNRVLTSLNGGI, the growth estimate is less than -0.25.

LAWMPQHALQVDQRLHRCLT: the growth estimate was less than -0.25.

As to RFAEASHGSYCVIDRLCLGQ, the growth estimate is less than -0.25.

Regarding FSHNCGGPSLTTAVVSLANR, the growth estimate is less than -0.25.

As for IGMGPGVKMRC, the growth estimate is less than -0.25.

On to SSI, for which the growth estimate is -0.2486 ± 0.0024.

LTIYRY: the growth estimate was less than -0.25.

For the substance GTRRF, the growth estimate is less than -0.25.

In the case of TNFGRPMSE, the growth estimate was less than -0.25.

In the case of TVGKPMSSETSGQSWVHNAS, the growth estimate is less than -0.25.

For the substance CREGPVSKTRFLDGVNRSAQ, the growth estimate is less than -0.25.

For the substance GHRQEFRG, the growth estimate is less than -0.25.

Consider SAFCATAIYVQAFRLEKSAP, for which the growth estimate is -0.243.

In the case of LGYAQDVCPSPNVRYASLR, the growth estimate is less than -0.25.

As to NHLAPRG, the growth estimate is less than -0.25.

Consider LLGSGVRSYGCLGNECTP, for which the growth estimate is less than -0.25.

On to LDLQPP, for which the growth estimate is less than -0.25.

Consider CARRTNLGVRNWLRYLLKKG, for which the growth estimate is less than -0.25.

As for ASR, the growth estimate is less than -0.25.

Consider ALKCVGSCFPRLLHLNKGLG, for which the growth estimate is less than -0.25.

For WLH, the growth estimate is less than -0.25.

For the substance ASSDNSPPPRVRK, the growth estimate was less than -0.25.

Consider VFLPTTSENVLRTVSIDNVR, for which the growth estimate is less than -0.25.

In the case of QPFGWTLDPEETSCCLHVRG, the growth estimate was less than -0.25.

For the substance VKCLRKTREICGLNMSGCLD, the growth estimate is less than -0.25.

For the substance PSMYHLVEYGYHCGGASWLT, the growth estimate was less than -0.25.

On to CVMDRSATVSDASFS, for which the growth estimate was less than -0.25.

As to DPVLTKQPRGLVPR, the growth estimate is less than -0.25.

As to DACVERLPRELRFRGVNCAW, the growth estimate was less than -0.25.

With LTAGKIGSSSVGQK, the growth estimate is less than -0.25.

As for SLCLDCTVRVSASRRKR, the growth estimate was less than -0.25.

AQLLVFVADAVLM: the growth estimate was less than -0.25.

KRASVTGPQKGSLIIRNIDR: the growth estimate is less than -0.25.

Turning to YRGLALRWD, the growth estimate was less than -0.25.

For the substance DMHTNHLKLYDSTRLPSSTG, the growth estimate is less than -0.25.

Take QVLFTFQLKGLRAFGDRSWE: the growth estimate is less than -0.25.

For the substance SRAQMQRTSLMMRVGTFGIL, the growth estimate is less than -0.25.

GGGWISGEGYS: the growth estimate is -0.246.

Consider LCSHILFR, for which the growth estimate was less than -0.25.

PSELPH: the growth estimate was less than -0.25.

Take SRRGVTTELD: the growth estimate was less than -0.25.

On to DVELFINPLLISAVWLLLGG, for which the growth estimate was less than -0.25.

As to LEVVTAFGKGGYIQAY, the growth estimate was less than -0.25.

Regarding GKAIGVAIGIFPNRIRL, the growth estimate is less than -0.25.

Regarding LGSRLDLYHGRGKRSDLPLV, the growth estimate was less than -0.25.

For the substance AYR, the growth estimate was less than -0.25.

With LLPIASWYIGPGVA, the growth estimate was less than -0.25.

On to GRDWARSMFHIVLPSRPPVP, for which the growth estimate is less than -0.25.

Take RHSHK: the growth estimate was less than -0.25.

Turning to DLSRLNIRLGILPTAGTDI, the growth estimate was less than -0.25.

In the case of VIILPGMARICHPGE, the growth estimate was less than -0.25.

For GGPP, the growth estimate was less than -0.25.

On to PPHYTKQVGD, for which the growth estimate was less than -0.25.

In the case of RRSVANFLSHEN, the growth estimate was less than -0.25.

On to RGSCGGDVM, for which the growth estimate was less than -0.25.

On to DQSKVVGSVQVCQ, for which the growth estimate is less than -0.25.

For SRTSLQQWVVTSQRALTRSP, the growth estimate is less than -0.25.

On to RGTIR, for which the growth estimate is less than -0.25.

As to PNAETGRKVPSCLV, the growth estimate was less than -0.25.

As to RANDAMIPVLGGTAERGNGP, the growth estimate was less than -0.25.

Take LASLERAVFGVKSASAGLMR: the growth estimate is less than -0.25.

With LSCFR, the growth estimate was less than -0.25.

For the substance LVGHGRGA, the growth estimate was less than -0.25.

As for PKCLGVIGHIGSGSGDALA, the growth estimate was less than -0.25.

Turning to PCVRGEGICY, the growth estimate is less than -0.25.

As for GRSQRVNS, the growth estimate was less than -0.25.

For TGGRLPGRISCLIPGVTQAS, the growth estimate was less than -0.25.

Regarding GLPSKDSLRLLGITPQTFMR, the growth estimate is less than -0.25.

Regarding DDRSIGRLMTEGTYLRAESA, the growth estimate is less than -0.25.

HPSYPSPPPSTQAGIDISNH: the growth estimate was less than -0.25.

For NWRIVVILGGKGCLRPTANC, the growth estimate was less than -0.25.

Regarding GPAWCFDKEGPVCTGSSVVK, the growth estimate is less than -0.25.

On to DGQAQG, for which the growth estimate is less than -0.25.

Turning to PSPDMV, the growth estimate was less than -0.25.

On to EVSRADWL, for which the growth estimate was less than -0.25.

On to QVRSDHLTFWTN, for which the growth estimate is less than -0.25.

Take TVNVGRL: the growth estimate was less than -0.25.

With VDLDCRITRVRHPGTTY, the growth estimate is less than -0.25.

On to AICQGDRNPLAPSFDWRSAR, for which the growth estimate is less than -0.25.

For the substance YKYT, the growth estimate is less than -0.25.

MRQSYLAG: the growth estimate was less than -0.25.

As for YDVNFTAFIALGRIE, the growth estimate is -0.228.

Take VVTRKGMGPGLSTRVTRRCD: the growth estimate is less than -0.25.

On to FPTLCRDYGRVHVSPASTTA, for which the growth estimate is less than -0.25.

For CWLYLRDELAELVGITAQAA, the growth estimate was less than -0.25.

Turning to RGVSRLPRWTRCSRSGVPCR, the growth estimate was less than -0.25.

In the case of KAGKEDGRGPLFISSG, the growth estimate was less than -0.25.

For YLIAVFLCHVRMRSLSHLGV, the growth estimate was less than -0.25.

In the case of RQGQ, the growth estimate is less than -0.25.

As for LGIRT, the growth estimate was less than -0.25.

Consider QSRYPC, for which the growth estimate was less than -0.25.

WILAHGSIYARLRVAPGIGR: the growth estimate is less than -0.25.

For the substance LVKWTWPADFARRLVVKLAT, the growth estimate is less than -0.25.

As to LWSWNVAWNSVSVK, the growth estimate was less than -0.25.

With VCRTTVNAVTGKGDAPGAGR, the growth estimate is less than -0.25.

For the substance TRRMGVLENLGTWPGRLESF, the growth estimate was less than -0.25.

With RLRNQRDSYHFIGIAWFRPQ, the growth estimate is less than -0.25.
